# Test results published in PubChem BioAssay AID588497 (NMMLSC, 2011).
# Out of some 360,000 compounds screened, about 780 (0.22%) were called active. The inconclusive results got no clear call from the source; some entries with a clear call stand among them for comparison. No stated cut-off is given here; in the data, active means inhibition above about 35% (passing the limit was not always enough); inconclusive means no clear call, values can overlap the other calls.
# Test system: Botulinum neurotoxin type F light chain protease (Clostridium botulinum)
# Assay: BoNT/F light chain protease inhibitors, primary screen, biochemical, flow cytometry, MLPCN library (AID 588497); further: plate controls were buffer without enzyme for full effect and enzyme alone for no effect
# Conditions: Multiplex microsphere protease cleavage assay, at 10 µM, stronger effect = higher value
row,SMILES,inhibition
1,CCc1nnc(SCC(=O)Nc2ccc(NC(C)=O)cc2)n1-n1cccc1,inconclusive: -3.4%
2,COc1ccc(OC)c(N=c2oc3cc(O)ccc3cc2C(N)=O)c1,inconclusive: -9.5%
3,C=CCNC(=S)NNC(=O)C(CC(C)C)CC(C)O (configuration not stated),inconclusive: -33.8%
4,CCNc1nc2c(c(=O)n(C)c(=O)n2C)n1CCCc1ccccc1,inconclusive: -13.3%
5,CCC(=O)N(C(=O)CC)N1CCN(c2ccncc2S(=O)(=O)N2CCCCC2)CC1,inactive: -5.2%
6,CC1CCN(C(=O)c2ccc(NS(=O)(=O)c3ccccc3)cc2)CC1,inconclusive: 1%
7,COC(=O)c1ccc(NC(=O)CN(C2CCCCC2)S(C)(=O)=O)cc1,inconclusive: -24.4%
8,C=CCn1c(SCc2cccc(OC)c2)nnc1-c1ccncc1,inconclusive: -28.2%
9,Cc1cc(C)nc(NS(=O)(=O)c2ccc(NS(=O)(=O)c3ccsc3)cc2)n1,inconclusive: -29.7%
10,O=S(=O)(c1ccc(Cl)cc1)N1CCN(c2ccccn2)CC1,active: 47.7%
11,COc1cccc(S(=O)(=O)N(C)C[C@H]2Oc3ncc(Br)cc3C(=O)N([C@@H](C)CO)C[C@@H]2C)c1,inactive: 1.5%
12,Cc1ccc(C(=O)N2CCN(c3ccc(NC(=S)NC(=O)Cc4ccccc4)cc3)CC2)cc1,inactive: -3.5%
13,O=C1CCCN1S(=O)(=O)c1ccc(F)cc1,inconclusive: -11.3%
14,CC1(C(=O)NNC(=O)C2CCCCC2)CC1(Cl)Cl (configuration not stated),inconclusive: 18.5%
15,COCCSc1nc2c(c(=O)[nH]c(=O)n2C)n1CCCc1ccccc1,inconclusive: 40.3%
16,COc1ccc(CNc2ncnc3c2[nH]c2cc(OC)c(OC)cc23)cc1,inconclusive: -17.5%
17,O=C(Nc1ccc(S(=O)(=O)NCc2ccco2)cc1)C1CCCCC1,inactive: -2.8%
18,COc1ccc(S(=O)(=O)Nc2ccc3ccccc3c2)cc1C,inactive: -5.6%
19,CCOc1ccc2[nH]cc(-c3csc(N)n3)c2c1,inconclusive: -159%
20,CCOc1ccc(N(CC(=O)NCc2cccc(OC)c2)S(=O)(=O)c2c(C)noc2C)cc1,inconclusive: -49.1%
21,COc1ccccc1N(CC(=O)NC(C)(C)C)C(=O)Cn1nnc(-c2ccc(C)o2)n1,inactive: 7.9%
22,Cn1nnnc1SCc1cccc(CSc2nnnn2C)n1,inactive: 3.6%
23,Cc1ccccc1C(=O)NC(=S)NCC(=O)c1ccccc1,inconclusive: -41.4%

row,SMILES,inhibition
1,CC(O)CNCCNCc1cccs1 (configuration not stated),inactive: -2.8%
2,CN1CCN(c2ccc(CNS(=O)(=O)Cc3cccc(C(F)(F)F)c3)cc2)CC1,inconclusive: -38.2%
3,Cc1ccc(C2CC(C(F)(F)F)n3ncc(C(=O)NCc4ccco4)c3N2)cc1 (configuration not stated),inconclusive: -2.9%
4,CC(NC(=O)COC(=O)c1cc2ccccc2cc1O)c1ccccc1 (configuration not stated),inconclusive: -16.1%
5,C=CCN1CCN(C(=O)c2ccc(-c3ccccc3)cc2)CC1,inactive: 2.5%
6,O=C(COC(=O)Cc1ccccc1)NC12CC3CC(CC(C3)C1)C2,inactive: -40%
7,CCOC(=O)C(=CNc1ccc2c(c1)CCN2C(C)=O)C(=O)OCC,inconclusive: -16.6%
8,CCC1CCC(N2CCN(c3ccc([N+](=O)[O-])cc3)CC2)CC1 (configuration not stated),inconclusive: -18%
9,Cc1cc(OCC(=O)N(C)c2ccccc2)cc2c1C(=O)CC(C)(C)O2,inconclusive: -9.7%
10,Cc1cccc(NC(=S)N2CCN(c3ccccn3)CC2)c1,inconclusive: -1.1%
11,COc1cc(C(=O)NCCC2=CCCCC2)cc(OC)c1OC,inactive: 4.1%
12,COc1ccc(C(=O)NCCCC2CCCC2)cc1OC1CCN(C(C)C)CC1,inactive: -4.8%
13,Cc1cnc2cc(Cl)ccc2c1SCC(=O)O,inconclusive: -3.3%
14,C=C(C)CSc1nnc(-c2ccc(OC)cc2)n1N,inactive: 0.7%
15,CN(c1ccc(C(=O)Nc2ccccc2Sc2ccccc2)cc1)S(C)(=O)=O,inconclusive: -6.6%
16,O=C(O)CC1(CC(=O)Nc2ccc3ccccc3n2)CCCCC1,inconclusive: -73.8%
17,O=C(Cc1ncon1)Nc1ccc(F)c(F)c1F,inconclusive: -13.6%
18,C=CCN(CC=C)C(=O)c1ccc2nc(Cc3ccc(OC)c(OC)c3)oc2c1,inconclusive: 8.5%
19,O=C(Nc1nnc(Cc2ccccc2F)s1)Nc1ccccc1F,inconclusive: -6.7%
20,O=S(=O)(Cc1ccccc1)N1CCCCC1,inactive: -7.6%
21,Cc1onc(-c2ccccc2)c1-c1csc(N/N=C/c2ccccc2)n1,inconclusive: 11.3%
22,O=C(CSc1ccc2ccccc2n1)N/N=C/c1ccc(O)cc1,inconclusive: 10.4%
23,COc1ccc(OC)c(-n2c(N)c(C(=O)NCC3CCCO3)c3nc4ccccc4nc32)c1 (configuration not stated),inconclusive: 9%

row,SMILES,inhibition
1,FC(F)(F)COc1nc(OCC(F)(F)F)nc(N2CCN(c3ccccc3)CC2)n1,inconclusive: 15.9%
2,COc1ccc(CC(=O)O/N=C(\N)Cc2ccc([N+](=O)[O-])cc2)cc1,inconclusive: -62.3%
3,COc1ccc(S(=O)(=O)NC(=O)C2(C)CCN2C(=O)C2(c3ccccc3)CC2)cc1 (configuration not stated),inactive: -1%
4,Cc1cc(C)n(-c2cc(N3CCN(C(=O)c4cccc(Br)c4)CC3)ccc2[N+](=O)[O-])n1,inconclusive: -4.1%
5,Cc1ccc(C2NC(=O)NC(O)(C(F)(F)F)C2C(=O)c2ccccc2)o1 (configuration not stated),inactive: 1.5%
6,C=CCOc1ccc(Oc2cc(C)nc(SC)n2)nn1,inconclusive: 1.2%
7,CC(=O)Nc1ccc(C(=O)Nc2ccncc2)cc1,inconclusive: 8.9%
8,Cc1cc(C(=O)NCc2cccnc2)no1,inactive: 2.3%
9,OCCN1CCN(c2cc(C(F)(F)F)nc3c(F)cccc23)CC1,inconclusive: -43%
10,O=C(CSc1cccc2cccnc12)Nc1cc(C(=O)O)cc(C(=O)O)c1,inconclusive: -2.7%
11,Cn1c(SCC(=O)NNC(=S)Nc2ccccc2)nnc1-c1ccccc1,inconclusive: 10.2%
12,O=C(O)Cc1ccc(NC(=O)c2ccc3c(c2)C(=O)N(CC2CCCO2)C3=O)cc1 (configuration not stated),inactive: 4.6%
13,CNc1cccc(-c2ccc(C(=O)N3CCOCC3)cc2)n1,inactive: -9.9%
14,Cc1ccc(S(=O)(=O)CCC(=O)NCc2ccco2)cc1,inconclusive: -13.9%
15,COc1ccc(NC(=O)c2cn(-c3ccccc3)nc2SC)cc1,inconclusive: -47.3%
16,CCCCn1c(=O)c(C(=O)Nc2ncccc2C)c(O)c2ccccc21,inconclusive: 18.3%
17,O=S(=O)(CCN1C=CC(C(F)(F)F)=NCC1)c1ccc(F)cc1,inconclusive: 6.9%
18,O=C(CSc1nccn(-c2ccc3c(c2)OCCO3)c1=O)Nc1ccccc1,inconclusive: 5.9%
19,CC1(C)CNC(=O)c2sc(N3CCCCC3)nc2C1,inactive: 7.8%
20,COC(=O)COc1ccc(C(c2c(C)[nH][nH]c2=O)c2c(C)[nH][nH]c2=O)cc1,inconclusive: -13.1%
21,CC(=O)N1c2ccc(S(=O)(=O)N3CCC(C(=O)N4CC(C)CC(C)C4)CC3)cc2CC1C (configuration not stated),inactive: -0.1%
22,O=C(NCc1ccccc1Cl)C1CCCN1C(=O)NCc1ccccc1 (configuration not stated),inconclusive: -3.3%
23,O=C(N/N=C/c1c(O)n(Cc2ccccc2)c(=O)[nH]c1=O)c1ccncc1,inconclusive: -75.9%

# Taken from above.
# Entry of `CC(=O)N1c2ccc(S(=O)(=O)N3CCC(C(=O)N4CC(C)CC(C)C4)CC3)cc2CC1C` (configuration not stated) under inhibition: inactive: -0.1%
# Entry of `O=C(CSc1cccc2cccnc12)Nc1cc(C(=O)O)cc(C(=O)O)c1` under inhibition: inconclusive: -2.7%
# Entry of `O=S(=O)(CCN1C=CC(C(F)(F)F)=NCC1)c1ccc(F)cc1` under inhibition: inconclusive: 6.9%
# Entry of `O=C(CSc1nccn(-c2ccc3c(c2)OCCO3)c1=O)Nc1ccccc1` under inhibition: inconclusive: 5.9%
# Entry of `COc1ccc(S(=O)(=O)NC(=O)C2(C)CCN2C(=O)C2(c3ccccc3)CC2)cc1` (configuration not stated) under inhibition: inactive: -1%

# Additional results follow:

row,SMILES,inhibition
1,COc1cc2cc(CN(CCN3CCCC3)C(=O)Nc3ccccc3Cl)c(=O)[nH]c2cc1OC,active: 56.9%
2,Cc1cccc(OCC(=O)Oc2ccc(Cl)cc2)c1,inconclusive: 20.8%
3,Cc1cc([N+](=O)[O-])ccc1NCc1ccc2c(c1)OCCO2,inactive: 16.2%
4,C=CCOc1ccc(/C=C2\SC(=S)N(N3CCOCC3)C2=O)cc1,inconclusive: -3.6%
5,Cc1cccc(C(=O)NC(=S)Nc2c(C)n(C)n(-c3ccccc3)c2=O)c1,inconclusive: -22.8%
6,Cc1cc(NCCN2CCOCC2)n2nc(C)c(-c3ccccc3)c2n1,inactive: -27.5%
7,CSc1nsc(NN)n1,inactive: -4.6%
8,O=C(CN1CCCCCC1)Nc1ccccc1Cl,inconclusive: 0.5%
9,CCOc1ccc(NC(=O)CCNC(=O)Cn2ccc3ccccc3c2=O)cc1,inactive: -4.9%
10,CCN(CC)CC(=O)N1c2ccccc2CCc2ccc(NC(=O)c3cc(OC)c(OC)c(OC)c3)cc21,inconclusive: 34.2%
11,CC(C)OCCCNC(=O)c1c(N)n(/N=C/c2cccs2)c2nc3ccccc3nc12,inconclusive: 22.8%
12,COC(=O)c1ccc(COC(=O)c2cc3ccccc3oc2=O)cc1,inconclusive: 1.6%
13,Cc1cccc(C)c1NC(=S)NN1CCN(C)CC1,inconclusive: -16.7%
14,CCC(CC)NC(=O)CSc1nnc(-c2ccc(OC)cc2)n1C(C)C,inconclusive: -22.3%
15,CC1CCCC(NC(=O)c2cc(-c3ccncc3)nc3ccccc23)C1C (configuration not stated),inconclusive: 18.4%
16,COc1cccc(CNc2ccccn2)c1O,inconclusive: -18%
17,Cc1ccc(Sc2nnc(Cc3ccccc3)c3ccccc23)cc1,inactive: -0.4%
18,N#CC(C#N)=Cc1ccc(C=C(C#N)C#N)cc1,inconclusive: -5.7%
19,CC(C)(C(N)=O)c1ccccc1,inconclusive: 20.1%
20,CC(=O)n1cc(/C=C2/N=C(c3ccccc3)OC2=O)c2ccccc21,inactive: 7.7%
21,Cc1cc(C)cc(NC(=O)CSc2nc(=O)n3cc(C)ccc3n2)c1,inconclusive: 3.9%
22,CCNc1nc(NCC)n2c(SCC(=O)Nc3ccc(C)c(C)c3)nnc2n1,active: 36.8%
23,O=C(CN1CCCCCC1)Nc1nc2ccccc2s1,inconclusive: 9.8%
